Results from paper PMC13623127.
These are yes or no findings as the source states them, for the method shown.

By UniProt entry, the sequences of proteins in these tests, tags left out.
UniProt P23297: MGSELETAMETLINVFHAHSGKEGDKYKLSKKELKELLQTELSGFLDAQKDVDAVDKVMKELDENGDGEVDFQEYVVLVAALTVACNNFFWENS
UniProt P29034: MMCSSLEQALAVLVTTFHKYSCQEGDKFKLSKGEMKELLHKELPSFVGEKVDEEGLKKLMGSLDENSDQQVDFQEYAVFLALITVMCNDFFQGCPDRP
UniProt P60903: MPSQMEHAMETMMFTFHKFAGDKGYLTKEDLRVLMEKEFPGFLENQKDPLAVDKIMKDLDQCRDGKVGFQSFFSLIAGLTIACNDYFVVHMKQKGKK
UniProt P26447: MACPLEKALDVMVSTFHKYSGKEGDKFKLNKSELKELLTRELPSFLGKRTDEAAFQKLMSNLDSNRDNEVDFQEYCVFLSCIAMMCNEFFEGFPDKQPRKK

Key:
Experiment in all cases: SPR; TNFSF member immobilised by amine coupling on a ProteOn GLH chip, S100 protein as analyte; 25°C; 10 mM HEPES-NaOH, 150 mM NaCl, 0.05% TWEEN 20, 1 mM CaCl2, pH 7.4; both purified
[1] = target: BAFF, TNF ligand superfamily member 13B, soluble form (human)
[2] = target: CD40L, TNF ligand superfamily member 5, soluble form (human)
[3] = target: FasL, TNF ligand superfamily member 6, soluble form (human)
[4] = target: OX40L, TNF ligand superfamily member 4, soluble form (human)
[5] = target: T1, RANKL, TNF ligand superfamily member 11, soluble form (human)
T1 sequence: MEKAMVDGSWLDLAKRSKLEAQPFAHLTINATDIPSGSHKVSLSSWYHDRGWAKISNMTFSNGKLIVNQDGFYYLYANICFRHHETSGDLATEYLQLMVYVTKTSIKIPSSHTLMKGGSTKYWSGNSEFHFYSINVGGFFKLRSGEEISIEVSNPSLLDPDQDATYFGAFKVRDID

With S100A1 (from UniProt P23297 1-94) the binding [1] was “no binding (tested: analyte 62.5 nM to 16 μM)”, the binding [2] was “no binding (tested: analyte 62.5 nM to 16 μM)” and the binding [3] was “no binding (tested: analyte 62.5 nM to 16 μM)”. For the same substance, the binding [4] was “no binding (tested: analyte 62.5 nM to 16 μM)” and the binding [5] was “no binding (tested: analyte 62.5 nM to 16 μM)”.

With S100A2 (from UniProt P29034 1-98) the binding [1] was “no binding (tested: analyte 62.5 nM to 16 μM)”, the binding [2] was “no binding (tested: analyte 62.5 nM to 16 μM)” and the binding [3] was “no binding (tested: analyte 62.5 nM to 16 μM)”. For the same substance, the binding [4] was “no binding (tested: analyte 62.5 nM to 16 μM)” and the binding [5] was “no binding (tested: analyte 62.5 nM to 16 μM)”.

S100A10 (from UniProt P60903 1-97) was tested, and the binding [1] was “no binding (tested: analyte 62.5 nM to 16 μM)”, the binding [2] was “no binding (tested: analyte 62.5 nM to 16 μM)” and the binding [3] was “no binding (tested: analyte 62.5 nM to 16 μM)”. The binding [4] was “no binding (tested: analyte 62.5 nM to 16 μM)” and the binding [5] was “no binding (tested: analyte 62.5 nM to 16 μM)”.

S100A4 (from UniProt P26447 1-101) was tested, and the binding [1] was “no binding (tested: analyte 62.5 nM to 16 μM)”, the binding [2] was “no binding (tested: analyte 62.5 nM to 16 μM)” and the binding [3] was “no binding (tested: analyte 62.5 nM to 16 μM)”. For the same substance, the binding [4] was “no binding (tested: analyte 62.5 nM to 16 μM)” and the binding [5] was “no binding (tested: analyte 62.5 nM to 16 μM)”.
